The record followed here is patent US20100022481A1, “Drug Carriers, Their Synthesis, and Methods of Use Thereof” (priority 2006, published 2010).

Molecules are shown by their SMILES.

The subject of the assay is rat mandible. Briefly: Bilateral rat mandible model, bone growth and inflammation, histomorphometry. The class given is in vivo, Female Sprague Dawley rats. To be noted: equivalent amounts of ALN: 50 μl of 400 mg/mL ALN-CD or 50 μl of 81 mg/ml ALN.

Regarding `NCCCC(O)(P(=O)(O)O)P(=O)(O)O` [alendronate], the “new bone width adjacent to where the formulations were injected” value worked out at 0.14 ± 0.05 mm.
